This passage reports binding results from article PMC6062506.

Sequences of proteins named here, by UniProt entry; tags and fusion partners are left off.
UniProt P11103: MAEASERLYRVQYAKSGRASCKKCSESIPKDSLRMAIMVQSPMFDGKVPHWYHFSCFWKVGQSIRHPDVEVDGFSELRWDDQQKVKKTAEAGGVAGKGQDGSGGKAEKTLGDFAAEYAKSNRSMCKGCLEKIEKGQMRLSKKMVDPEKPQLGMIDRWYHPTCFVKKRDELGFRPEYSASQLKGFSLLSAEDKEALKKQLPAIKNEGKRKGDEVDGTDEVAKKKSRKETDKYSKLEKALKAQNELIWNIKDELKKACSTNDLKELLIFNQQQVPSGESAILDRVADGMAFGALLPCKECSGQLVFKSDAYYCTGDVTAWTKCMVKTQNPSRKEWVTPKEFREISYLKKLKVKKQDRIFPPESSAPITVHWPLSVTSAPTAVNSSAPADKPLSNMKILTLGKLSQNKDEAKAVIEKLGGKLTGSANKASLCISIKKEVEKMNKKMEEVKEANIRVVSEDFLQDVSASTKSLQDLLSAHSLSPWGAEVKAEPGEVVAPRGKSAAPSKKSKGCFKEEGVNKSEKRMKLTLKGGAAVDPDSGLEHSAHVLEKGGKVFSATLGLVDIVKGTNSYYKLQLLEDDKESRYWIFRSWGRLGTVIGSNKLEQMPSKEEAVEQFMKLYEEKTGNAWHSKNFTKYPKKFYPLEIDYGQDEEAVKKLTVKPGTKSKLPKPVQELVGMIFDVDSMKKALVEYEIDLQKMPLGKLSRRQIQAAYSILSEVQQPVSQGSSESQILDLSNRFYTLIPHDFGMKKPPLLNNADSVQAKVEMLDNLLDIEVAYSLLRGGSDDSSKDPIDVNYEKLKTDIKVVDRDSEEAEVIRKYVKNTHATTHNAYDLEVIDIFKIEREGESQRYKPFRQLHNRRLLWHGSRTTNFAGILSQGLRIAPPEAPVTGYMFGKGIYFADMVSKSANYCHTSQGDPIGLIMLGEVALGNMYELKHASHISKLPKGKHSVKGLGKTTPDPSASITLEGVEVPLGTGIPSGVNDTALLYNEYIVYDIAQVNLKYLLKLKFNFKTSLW

Results are given in words; binding and its absence hold for the method and conditions named. In cells and extracts the contact can be indirect. These calls come from enrichment with a bait or labelling near it, and not all partners need be listed.

In this experiment the target is Poly (ADP-ribose) polymerase 1 (PARP1), endogenous in mouse liver (mouse (endogenous in liver)) (UniProt P11103). In words: affinity purification with mass spectrometry; anti-PARP1 antibody or IgG with extracts of APAP-treated mouse liver overnight at 4 °C, protein-A/G agarose; silver staining; band around 50 kDa subjected to LC-MS/MS.

B1: pregnane X receptor (PXR), endogenous in mouse liver (receptor, UniProt O54915 1-431)
chain: MRPEESWSRVGLVQCEEADSALEEPINVEEEDGGLQICRVCGDKANGYHFNVMTCEGCKGFFRRAMKRNVRLRCPFRKGTCEITRKTRRQCQACRLRKCLESGMKKEMIMSDAAVEQRRALIKRKKREKIEAPPPGGQGLTEEQQALIQELMDAQMQTFDTTFSHFKDFRLPAVFHSGCELPEFLQASLLEDPATWSQIMKDRVPMKISLQLRGEDGSIWNYQPPSKSDGKEIIPLLPHLADVSTYMFKGVINFAKVISYFRDLPIEDQISLLKGATFEMCILRFNTMFDTETGTWECGRLAYCFEDPNGGFQKLLLDPLMKFHCMLKKLQLHKEEYVLMQAISLFSPDRPGVVQRSVVDQLQERFALTLKAYIECSRPYPAHRFLFLKIMAVLTELRSINAQQTQQLLRIQDSHPFATPLMQELFSSTDG
With B1, the binding result was “binds”.
